This is one part of the list.
Columns and labels:
Assay in all cases: log2 fold change, soluble protein after heating vs DMSO (PISA); higher = thermal stabilisation; K562 cells, 10 uM, 30 min; active = over 0.2 and 3.5 SD of the protein, either way, in both replicates (recomputed)
[1] = compound: NC(=O)Nc1cc(-c2cccc(F)c2)sc1C(=O)N[C@H]1CCCNC1
In short: (§1)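 K562 cells at 2×10^6 cells/mL were treated with 10 μM compound for 30 min. Aliquots were heated for 3 min across 48°C-58°C, pooled, and extracted in PBS with 0.5% NP-40 at 4°C; soluble protein was the supernatant after 21,000xg for 90 min. Soluble protein was quantified by TMTpro 16plex LC-MS/MS with channel sums equalised, and reported as log2 fold change in thermal stability against DMSO controls, with values from duplicates.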

Amino acid sequences for entries named in this document (tags omitted). A change or cut given only in a name is not applied to a line headed by its entry.
UniProt Q9BQE4, whole entry, looked up: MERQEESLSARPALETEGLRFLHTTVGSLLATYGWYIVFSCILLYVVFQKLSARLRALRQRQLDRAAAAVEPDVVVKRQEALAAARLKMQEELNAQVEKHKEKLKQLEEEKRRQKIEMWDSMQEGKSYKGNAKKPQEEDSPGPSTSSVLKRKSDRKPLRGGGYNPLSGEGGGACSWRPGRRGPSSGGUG
UniProt Q53H47: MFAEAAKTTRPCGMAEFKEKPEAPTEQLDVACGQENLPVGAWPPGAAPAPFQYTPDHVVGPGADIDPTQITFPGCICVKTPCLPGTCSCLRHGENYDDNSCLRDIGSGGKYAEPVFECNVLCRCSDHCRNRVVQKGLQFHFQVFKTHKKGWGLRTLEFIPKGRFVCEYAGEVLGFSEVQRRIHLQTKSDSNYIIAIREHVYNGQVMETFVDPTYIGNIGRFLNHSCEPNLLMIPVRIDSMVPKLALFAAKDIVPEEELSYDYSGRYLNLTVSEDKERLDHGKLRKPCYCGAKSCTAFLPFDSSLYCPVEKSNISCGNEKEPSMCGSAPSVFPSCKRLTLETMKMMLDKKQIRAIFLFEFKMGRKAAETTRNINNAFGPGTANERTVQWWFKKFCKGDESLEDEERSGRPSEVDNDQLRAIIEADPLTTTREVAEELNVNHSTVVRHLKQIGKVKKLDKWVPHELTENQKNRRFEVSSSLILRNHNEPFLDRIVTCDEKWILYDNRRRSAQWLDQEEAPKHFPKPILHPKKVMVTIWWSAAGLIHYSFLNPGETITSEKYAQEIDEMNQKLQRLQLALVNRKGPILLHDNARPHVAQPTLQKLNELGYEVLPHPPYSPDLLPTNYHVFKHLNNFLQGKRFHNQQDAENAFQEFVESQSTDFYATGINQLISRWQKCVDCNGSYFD
UniProt Q8TD22: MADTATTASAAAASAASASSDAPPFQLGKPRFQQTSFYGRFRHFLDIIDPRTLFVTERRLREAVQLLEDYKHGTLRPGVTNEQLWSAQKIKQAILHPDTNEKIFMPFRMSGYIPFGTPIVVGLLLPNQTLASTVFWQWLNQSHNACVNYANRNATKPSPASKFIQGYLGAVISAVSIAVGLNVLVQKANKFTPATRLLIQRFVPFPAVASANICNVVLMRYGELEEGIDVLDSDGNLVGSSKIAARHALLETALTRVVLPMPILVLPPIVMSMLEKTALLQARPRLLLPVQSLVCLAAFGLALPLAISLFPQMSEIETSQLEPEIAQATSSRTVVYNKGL
UniProt Q96EE3: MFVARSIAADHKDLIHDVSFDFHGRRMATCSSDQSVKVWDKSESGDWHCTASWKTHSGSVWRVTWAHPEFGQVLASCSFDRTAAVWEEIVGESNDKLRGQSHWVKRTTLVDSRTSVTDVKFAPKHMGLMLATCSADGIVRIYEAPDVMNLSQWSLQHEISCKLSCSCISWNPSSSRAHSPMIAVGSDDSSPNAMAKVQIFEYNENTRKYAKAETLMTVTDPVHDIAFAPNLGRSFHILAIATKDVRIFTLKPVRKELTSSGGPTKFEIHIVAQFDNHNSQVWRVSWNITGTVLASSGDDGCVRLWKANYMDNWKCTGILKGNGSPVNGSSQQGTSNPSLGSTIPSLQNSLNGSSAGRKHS
UniProt O75368: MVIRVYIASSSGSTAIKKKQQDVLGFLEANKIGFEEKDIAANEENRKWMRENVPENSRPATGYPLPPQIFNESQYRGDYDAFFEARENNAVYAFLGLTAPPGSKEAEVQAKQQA
UniProt O14796: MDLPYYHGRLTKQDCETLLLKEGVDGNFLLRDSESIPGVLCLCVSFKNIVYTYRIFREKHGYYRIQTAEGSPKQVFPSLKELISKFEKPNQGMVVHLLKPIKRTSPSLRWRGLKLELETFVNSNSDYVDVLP
UniProt P05543: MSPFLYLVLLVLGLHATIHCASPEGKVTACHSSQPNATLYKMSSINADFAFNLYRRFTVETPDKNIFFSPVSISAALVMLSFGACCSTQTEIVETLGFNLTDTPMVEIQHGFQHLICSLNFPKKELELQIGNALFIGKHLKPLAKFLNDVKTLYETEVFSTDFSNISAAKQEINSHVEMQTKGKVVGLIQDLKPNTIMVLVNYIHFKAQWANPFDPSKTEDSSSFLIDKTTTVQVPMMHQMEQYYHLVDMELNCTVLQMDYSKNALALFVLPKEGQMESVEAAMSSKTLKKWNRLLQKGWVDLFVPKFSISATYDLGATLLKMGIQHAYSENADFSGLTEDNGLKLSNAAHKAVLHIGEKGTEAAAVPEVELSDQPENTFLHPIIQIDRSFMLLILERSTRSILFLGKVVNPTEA
UniProt Q8IXJ6: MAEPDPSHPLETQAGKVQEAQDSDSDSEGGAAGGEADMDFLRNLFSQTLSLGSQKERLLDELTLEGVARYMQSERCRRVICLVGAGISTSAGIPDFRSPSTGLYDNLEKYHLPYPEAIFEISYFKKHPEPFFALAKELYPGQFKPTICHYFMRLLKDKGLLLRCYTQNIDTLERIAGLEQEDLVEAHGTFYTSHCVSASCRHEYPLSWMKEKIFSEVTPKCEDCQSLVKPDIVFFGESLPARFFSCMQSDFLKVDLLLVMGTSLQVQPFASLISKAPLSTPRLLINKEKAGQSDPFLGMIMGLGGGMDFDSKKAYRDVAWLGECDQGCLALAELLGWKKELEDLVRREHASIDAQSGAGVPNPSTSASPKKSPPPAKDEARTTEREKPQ
UniProt Q9BWJ5: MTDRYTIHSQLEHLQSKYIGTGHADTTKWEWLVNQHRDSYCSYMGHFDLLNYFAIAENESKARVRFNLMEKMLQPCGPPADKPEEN
UniProt A0MZ66, whole entry, looked up: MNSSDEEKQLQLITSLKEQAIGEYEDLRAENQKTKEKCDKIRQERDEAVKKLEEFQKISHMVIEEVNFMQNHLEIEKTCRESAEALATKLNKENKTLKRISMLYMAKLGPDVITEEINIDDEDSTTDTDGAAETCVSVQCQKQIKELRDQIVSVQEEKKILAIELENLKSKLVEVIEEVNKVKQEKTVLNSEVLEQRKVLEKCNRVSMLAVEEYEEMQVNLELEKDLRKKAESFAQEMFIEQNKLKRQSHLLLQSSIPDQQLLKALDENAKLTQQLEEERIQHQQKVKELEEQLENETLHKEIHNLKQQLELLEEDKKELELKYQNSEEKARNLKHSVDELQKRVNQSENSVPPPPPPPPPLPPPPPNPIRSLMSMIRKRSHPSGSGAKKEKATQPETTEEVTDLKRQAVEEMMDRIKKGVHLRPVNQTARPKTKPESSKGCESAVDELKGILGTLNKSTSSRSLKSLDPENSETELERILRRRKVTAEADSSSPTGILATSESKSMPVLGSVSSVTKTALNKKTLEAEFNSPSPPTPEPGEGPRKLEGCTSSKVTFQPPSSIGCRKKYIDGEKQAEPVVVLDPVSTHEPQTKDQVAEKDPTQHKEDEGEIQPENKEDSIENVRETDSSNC
UniProt Q13530: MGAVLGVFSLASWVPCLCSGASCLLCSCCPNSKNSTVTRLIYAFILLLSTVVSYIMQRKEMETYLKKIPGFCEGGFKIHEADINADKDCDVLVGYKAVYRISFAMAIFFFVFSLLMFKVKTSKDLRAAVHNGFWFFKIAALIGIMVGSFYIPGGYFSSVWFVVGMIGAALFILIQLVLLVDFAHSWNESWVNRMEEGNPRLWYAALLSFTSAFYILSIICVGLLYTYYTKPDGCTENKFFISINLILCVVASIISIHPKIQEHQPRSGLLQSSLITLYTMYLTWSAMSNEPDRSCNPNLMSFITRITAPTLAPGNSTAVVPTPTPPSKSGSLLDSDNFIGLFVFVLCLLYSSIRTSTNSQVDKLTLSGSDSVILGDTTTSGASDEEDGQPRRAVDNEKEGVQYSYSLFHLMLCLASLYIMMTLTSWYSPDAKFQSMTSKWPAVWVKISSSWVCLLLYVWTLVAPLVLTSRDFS
UniProt Q99611, whole entry, looked up: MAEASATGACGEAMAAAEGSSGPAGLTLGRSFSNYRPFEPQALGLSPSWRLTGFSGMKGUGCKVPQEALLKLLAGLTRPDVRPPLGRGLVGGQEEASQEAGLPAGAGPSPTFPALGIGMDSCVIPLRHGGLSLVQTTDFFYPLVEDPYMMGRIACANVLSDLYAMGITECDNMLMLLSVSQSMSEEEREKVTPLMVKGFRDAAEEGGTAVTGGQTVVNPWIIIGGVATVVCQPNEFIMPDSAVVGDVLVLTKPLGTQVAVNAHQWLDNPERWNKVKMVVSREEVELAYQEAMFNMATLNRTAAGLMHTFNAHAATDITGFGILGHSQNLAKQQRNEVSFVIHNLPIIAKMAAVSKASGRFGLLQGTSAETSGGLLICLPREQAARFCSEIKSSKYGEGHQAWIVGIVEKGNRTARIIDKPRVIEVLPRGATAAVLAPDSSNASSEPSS
UniProt Q9NPR2: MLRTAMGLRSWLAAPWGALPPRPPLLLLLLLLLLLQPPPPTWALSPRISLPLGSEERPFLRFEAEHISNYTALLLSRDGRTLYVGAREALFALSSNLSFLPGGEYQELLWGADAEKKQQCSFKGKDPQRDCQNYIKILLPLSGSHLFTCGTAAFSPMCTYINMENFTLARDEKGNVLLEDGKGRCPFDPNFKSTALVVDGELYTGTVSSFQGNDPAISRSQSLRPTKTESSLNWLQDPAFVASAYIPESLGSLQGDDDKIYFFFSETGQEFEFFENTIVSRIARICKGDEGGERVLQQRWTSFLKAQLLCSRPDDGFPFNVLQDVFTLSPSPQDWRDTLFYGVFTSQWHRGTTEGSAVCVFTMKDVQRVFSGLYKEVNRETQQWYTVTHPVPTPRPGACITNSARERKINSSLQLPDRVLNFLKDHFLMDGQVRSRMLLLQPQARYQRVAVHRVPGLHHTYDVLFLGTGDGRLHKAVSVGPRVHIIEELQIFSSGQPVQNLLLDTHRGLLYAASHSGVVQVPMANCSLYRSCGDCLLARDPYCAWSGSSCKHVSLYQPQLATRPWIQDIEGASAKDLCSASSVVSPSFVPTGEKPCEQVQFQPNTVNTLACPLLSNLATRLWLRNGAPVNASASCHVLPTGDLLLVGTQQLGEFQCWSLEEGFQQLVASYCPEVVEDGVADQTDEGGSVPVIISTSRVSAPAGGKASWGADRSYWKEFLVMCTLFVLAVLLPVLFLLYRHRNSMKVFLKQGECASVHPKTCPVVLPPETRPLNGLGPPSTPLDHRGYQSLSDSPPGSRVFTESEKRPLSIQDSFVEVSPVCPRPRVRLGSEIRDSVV
UniProt Q8NBJ9: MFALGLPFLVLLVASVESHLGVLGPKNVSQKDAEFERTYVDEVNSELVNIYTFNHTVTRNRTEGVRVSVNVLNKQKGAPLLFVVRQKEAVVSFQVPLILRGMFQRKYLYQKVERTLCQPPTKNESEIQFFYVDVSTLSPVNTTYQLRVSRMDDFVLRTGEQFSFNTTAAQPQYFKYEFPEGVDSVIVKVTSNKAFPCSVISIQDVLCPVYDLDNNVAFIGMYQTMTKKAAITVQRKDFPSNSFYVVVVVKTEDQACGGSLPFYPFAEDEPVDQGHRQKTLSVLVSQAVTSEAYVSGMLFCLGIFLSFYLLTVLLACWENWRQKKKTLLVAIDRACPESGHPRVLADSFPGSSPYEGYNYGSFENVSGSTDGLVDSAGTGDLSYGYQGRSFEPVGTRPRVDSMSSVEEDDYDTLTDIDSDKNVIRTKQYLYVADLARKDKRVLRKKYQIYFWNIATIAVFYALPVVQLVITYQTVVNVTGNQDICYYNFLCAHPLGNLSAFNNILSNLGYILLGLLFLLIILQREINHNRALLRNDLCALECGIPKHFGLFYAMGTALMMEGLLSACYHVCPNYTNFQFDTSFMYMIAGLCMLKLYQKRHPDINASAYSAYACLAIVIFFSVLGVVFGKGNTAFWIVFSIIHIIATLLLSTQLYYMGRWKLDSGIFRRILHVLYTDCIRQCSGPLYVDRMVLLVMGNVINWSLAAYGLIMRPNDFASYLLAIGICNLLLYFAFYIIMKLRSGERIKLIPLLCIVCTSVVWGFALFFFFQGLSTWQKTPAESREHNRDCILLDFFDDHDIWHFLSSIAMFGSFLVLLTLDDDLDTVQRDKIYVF
UniProt Q9NR46: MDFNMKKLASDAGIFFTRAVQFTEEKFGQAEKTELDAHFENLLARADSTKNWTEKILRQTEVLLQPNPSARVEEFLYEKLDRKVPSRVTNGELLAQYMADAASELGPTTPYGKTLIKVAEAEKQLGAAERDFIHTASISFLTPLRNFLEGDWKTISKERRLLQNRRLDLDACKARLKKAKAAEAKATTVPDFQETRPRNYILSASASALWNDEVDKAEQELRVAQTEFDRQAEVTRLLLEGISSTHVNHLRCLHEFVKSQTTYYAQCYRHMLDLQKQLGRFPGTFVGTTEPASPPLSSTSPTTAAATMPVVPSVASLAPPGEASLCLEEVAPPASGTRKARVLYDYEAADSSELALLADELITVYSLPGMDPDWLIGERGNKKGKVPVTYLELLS
UniProt P63208, whole entry, looked up: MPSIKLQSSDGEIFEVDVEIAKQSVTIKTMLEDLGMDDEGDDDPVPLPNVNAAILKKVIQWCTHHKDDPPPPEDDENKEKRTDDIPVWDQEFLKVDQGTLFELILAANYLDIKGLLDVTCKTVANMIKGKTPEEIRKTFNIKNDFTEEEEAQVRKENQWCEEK

[2] = compound: NC(=O)c1cnc(N[C@@H]2CCCC[C@@H]2N)nc1Nc1cccc(-n2nccn2)c1
In short: as §1

[3] = compound: NC1(c2ccc(-c3nc4ccn5c(=O)[nH]nc5c4cc3-c3ccccc3)cc2)CCC1
In short: as §1

[4] = compound: NCC(=O)Nc1ccc(-n2nc(C(F)(F)F)cc2-c2ccc3c(ccc4ccccc43)c2)cc1
In short: as §1

entinostat = compound: Nc1ccccc1NC(=O)c1ccc(CNC(=O)OCc2cccnc2)cc1 [entinostat]
In short: as §1

vorinostat = compound: O=C(CCCCCCC(=O)Nc1ccccc1)NO [vorinostat]
In short: as §1

citarinostat = compound: O=C(CCCCCCNC(=O)c1cnc(N(c2ccccc2)c2ccccc2Cl)nc1)NO [citarinostat]
In short: as §1

silmitasertib = compound: O=C(O)c1ccc2c(c1)nc(Nc1cccc(Cl)c1)c1ccncc12 [silmitasertib]
In short: as §1

[5] = compound: O=C1NC(=O)C(c2cnc3ccccn23)=C1c1cn2c3c(cc(F)cc13)CN(C(=O)N1CCCCC1)CC2
In short: as §1

[6] = compound: c1cc(OCCN2CCCCC2)cc(-c2n[nH]c3ccc(-c4nnc[nH]4)cc23)c1
In short: as §1

entospletinib = compound: c1cn2cc(-c3ccc4cn[nH]c4c3)nc(Nc3ccc(N4CCOCC4)cc3)c2n1 [entospletinib]
In short: as §1

Row | Target | log2 fold change [1] | log2 fold change [2] | log2 fold change [3] | log2 fold change [4] | log2 fold change (entinostat) | log2 fold change (vorinostat) | log2 fold change (citarinostat) | log2 fold change (silmitasertib) | log2 fold change [5] | log2 fold change [6] | log2 fold change (entospletinib)
1 | SELENOS (UniProt Q9BQE4) | inactive: 0.047 | inactive: -0.068 | inactive: -0.004 | inactive: -0.007 | inactive: -0.014 | inactive: 0.007 | inactive: 0.011 | inactive: 0.016 | inactive: -0.122 | inactive: -0.018 | inactive: 0.002
2 | SETMAR (UniProt Q53H47) | inactive: 0.11 | inactive: -0.024 | inactive: 0.05 | inactive: -0.078 | inactive: -0.032 | inactive: 0.004 | active: -0.629 | inactive: -0.064 | inactive: -0.105 | inactive: -0.255 | 
3 | SFXN5 (UniProt Q8TD22) | inactive: -0.043 | inactive: 0.042 | inactive: -0.072 | inactive: -0.095 | inactive: -0.068 | inactive: 0.019 | inactive: -0.028 | inactive: -0.003 | inactive: 0.012 | inactive: 0.072 | 
4 | SHKBP1 (UniProt Q8TBC3) | inactive: -0.062 | inactive: -0.047 | inactive: -0.014 | inactive: 0.017 | inactive: 0.027 | inactive: -0.076 | inactive: -0.102 | inactive: -0.024 | inactive: -0.077 | inactive: -0.123 | inactive: -0.034
5 | SFPQ (UniProt P23246) | inactive: 0.01 | inactive: 0.016 | inactive: 0.152 | inactive: -0.018 | inactive: 0.002 | inactive: 0.013 | inactive: 0.011 | inactive: 0.112 | inactive: 0.037 | inactive: -0.12 | inactive: 0.106
6 | SEH1L isoform 1 (UniProt Q96EE3) | inactive: 0.007 | inactive: -0.027 | inactive: -0.014 | inactive: -0.004 | inactive: -0.04 | inactive: 0.022 | inactive: 0.064 | inactive: 0.076 | inactive: -0.027 | inactive: -0.065 | 
7 | SH3BGRL (UniProt O75368) | inactive: 0.149 | inactive: -0.028 | inactive: -0.046 | inactive: 0.07 | inactive: 0.084 | inactive: -0.08 | inactive: 0.043 | inactive: -0.036 | inactive: -0.046 | inactive: 0.025 | inactive: -0.01
8 | SIN3A (UniProt Q96ST3) | inactive: -0.02 | inactive: -0.017 | inactive: -0.054 | inactive: -0.143 | inactive: 0.053 | inactive: 0.164 | inactive: 0.074 | inactive: 0.103 | inactive: 0.054 | inactive: -0.027 | inactive: -0.028
9 | SH2D1B (UniProt O14796) | active: -1.1 | inactive: 0.04 | inactive: -0.135 | inactive: -0.024 | inactive: 0.055 | inactive: 0.101 | inactive: 0.413 | inactive: -0.111 | inactive: -0.018 | inactive: -0.062 | 
10 | SERPINA7 (UniProt P05543) | inactive: -0.062 | inactive: 0.132 | inactive: 0.234 | inactive: -0.075 | inactive: -0.084 | inactive: -0.164 | inactive: -0.011 | inactive: 0.091 | inactive: 0.089 | inactive: 0.367 | 
11 | SEPTIN8 (UniProt Q92599) | inactive: 0.018 | inactive: -0.021 | inactive: -0.026 | inactive: 0.015 | inactive: -0.029 | inactive: 0.008 | inactive: 0.023 | inactive: -0.047 | inactive: 0.003 | inactive: -0.013 | inactive: -0.026
12 | SIRT2 (UniProt Q8IXJ6) | inactive: -0.048 | inactive: 0.023 | inactive: -0.07 | inactive: -0.066 | inactive: -0.02 | inactive: -0.039 | inactive: -0.022 | inactive: -0.035 | inactive: -0.035 | inactive: 0.033 | 
13 | SF3B5 (UniProt Q9BWJ5) | inactive: 0.081 | inactive: 0.043 | inactive: -0.034 | inactive: 0.038 | inactive: 0.116 | inactive: -0.004 | inactive: -0.016 | inactive: 0.016 | inactive: -0.127 | inactive: 0 | 
14 | SHTN1 isoform 3 (UniProt A0MZ66) | inactive: -0.073 | inactive: -0.12 | inactive: -0.005 | inactive: -0.083 | inactive: 0.004 | inactive: 0.027 | inactive: -0.043 | inactive: 0.138 | inactive: 0.021 | inactive: -0.136 | inactive: 0.062
15 | SESN2 (UniProt P58004) | inactive: -0.069 | inactive: -0.159 | inactive: -0.129 | inactive: -0.093 | inactive: 0.075 | inactive: 0.079 | inactive: -0.081 | inactive: 0.108 | inactive: -0.123 | inactive: 0.026 | 
16 | SERINC3 (UniProt Q13530) | inactive: -0.111 | inactive: -0.027 | inactive: -0.195 | inactive: -0.267 | inactive: -0.07 | inactive: -0.044 | inactive: -0.093 | inactive: 0.054 | inactive: 0.018 | inactive: -0.031 | 
17 | SHROOM2 (UniProt Q13796) | inactive: 0.024 | inactive: -0.09 | inactive: 0.275 | inactive: 0.006 | inactive: -0.037 | inactive: 0.068 | inactive: 0.057 | inactive: -0.141 | inactive: -0.088 | inactive: 0.057 | 
18 | SEPHS2 (UniProt Q99611) | inactive: 0.078 | inactive: 0.022 | inactive: 0.031 | inactive: 0.037 | inactive: 0.01 | inactive: 0.093 | inactive: 0.124 | inactive: 0.052 | inactive: 0.091 | inactive: 0.176 | inactive: -0.017
19 | SEMA4B (UniProt Q9NPR2) | inactive: -0.003 | inactive: 0.09 | inactive: -0.174 | inactive: -0.024 | inactive: 0.023 | inactive: -0.021 | inactive: 0.017 | inactive: 0.077 | inactive: -0.11 | inactive: -0.002 | inactive: -0.029
20 | SGPL1 (UniProt O95470) | inactive: -0.01 | inactive: 0.004 | inactive: -0.005 | inactive: 0.144 | inactive: 0 | inactive: -0.014 | inactive: 0.009 | inactive: -0.034 | inactive: 0.064 | inactive: -0.134 | 
21 | SIDT2 isoform 2 (UniProt Q8NBJ9) | inactive: 0.057 | inactive: -0.01 | inactive: -0.086 | inactive: 0.297 | inactive: -0.064 | inactive: -0.107 | inactive: 0.002 | inactive: -0.067 | inactive: 0.029 | inactive: 0.108 | 
22 | SEPSECS (UniProt Q9HD40) | inactive: 0.068 | inactive: 0.05 | inactive: 0.001 | inactive: 0.099 | inactive: 0.009 | inactive: -0.046 | inactive: 0.011 | inactive: 0.006 | inactive: -0.025 | inactive: 0.011 | inactive: -0.032
23 | SHCBP1 (UniProt Q8NEM2) | inactive: 0.01 | inactive: -0.017 | inactive: -0.107 | inactive: -0.08 | inactive: -0.063 | inactive: 0.039 | inactive: 0.136 | inactive: 0.025 | inactive: -0.087 | inactive: -0.091 | 
24 | SFXN4 (UniProt Q6P4A7) | inactive: -0.013 | inactive: -0.068 | inactive: -0.029 | inactive: -0.041 | inactive: -0.001 | inactive: 0.07 | inactive: 0.042 | inactive: 0.023 | inactive: -0.026 | inactive: -0.056 | inactive: 0.005
25 | SERPINB9 (UniProt P50453) | inactive: 0.031 | inactive: 0.003 | inactive: -0.019 | inactive: 0.022 | inactive: -0.015 | inactive: -0.014 | inactive: 0.022 | inactive: -0.046 | inactive: -0.004 | inactive: 0.003 | inactive: 0.007
26 | SH3GLB2 (UniProt Q9NR46) | inactive: -0.105 | inactive: -0.13 | inactive: -0.163 | inactive: 0.004 | inactive: 0.069 | inactive: 0.081 | inactive: 0.059 | inactive: 0.015 | inactive: -0.028 | inactive: -0.13 | 
27 | SFXN2 (UniProt Q96NB2) | inactive: -0.07 | inactive: 0.041 | inactive: 0.008 | inactive: -0.039 | inactive: -0.044 | inactive: 0.083 | inactive: 0.077 | inactive: -0.023 | inactive: -0.015 | inactive: -0.018 | inactive: 0.038
28 | SKP1 (UniProt P63208) | inactive: 0.015 | inactive: 0.011 | inactive: 0.034 | inactive: 0.047 | inactive: 0.037 | inactive: 0.16 | inactive: -0.003 | inactive: 0 | inactive: 0.008 | inactive: 0.01 | 

Five entries from above, reformatted:
Row,Target,log2 fold change [1],log2 fold change [2],log2 fold change [3],log2 fold change [4],log2 fold change (entinostat),log2 fold change (vorinostat),log2 fold change (citarinostat),log2 fold change (silmitasertib),log2 fold change [5],log2 fold change [6],log2 fold change (entospletinib)
5,SFPQ (UniProt P23246),inactive: 0.01,inactive: 0.016,inactive: 0.152,inactive: -0.018,inactive: 0.002,inactive: 0.013,inactive: 0.011,inactive: 0.112,inactive: 0.037,inactive: -0.12,inactive: 0.106
15,SESN2 (UniProt P58004),inactive: -0.069,inactive: -0.159,inactive: -0.129,inactive: -0.093,inactive: 0.075,inactive: 0.079,inactive: -0.081,inactive: 0.108,inactive: -0.123,inactive: 0.026,
17,SHROOM2 (UniProt Q13796),inactive: 0.024,inactive: -0.09,inactive: 0.275,inactive: 0.006,inactive: -0.037,inactive: 0.068,inactive: 0.057,inactive: -0.141,inactive: -0.088,inactive: 0.057,
19,SEMA4B (UniProt Q9NPR2),inactive: -0.003,inactive: 0.09,inactive: -0.174,inactive: -0.024,inactive: 0.023,inactive: -0.021,inactive: 0.017,inactive: 0.077,inactive: -0.11,inactive: -0.002,inactive: -0.029
20,SGPL1 (UniProt O95470),inactive: -0.01,inactive: 0.004,inactive: -0.005,inactive: 0.144,inactive: 0,inactive: -0.014,inactive: 0.009,inactive: -0.034,inactive: 0.064,inactive: -0.134,
